Among the data in publication PMC9311869 are binding values, retold here.

Amino acid sequences for entries named in this document (tags omitted).
UniProt P21796: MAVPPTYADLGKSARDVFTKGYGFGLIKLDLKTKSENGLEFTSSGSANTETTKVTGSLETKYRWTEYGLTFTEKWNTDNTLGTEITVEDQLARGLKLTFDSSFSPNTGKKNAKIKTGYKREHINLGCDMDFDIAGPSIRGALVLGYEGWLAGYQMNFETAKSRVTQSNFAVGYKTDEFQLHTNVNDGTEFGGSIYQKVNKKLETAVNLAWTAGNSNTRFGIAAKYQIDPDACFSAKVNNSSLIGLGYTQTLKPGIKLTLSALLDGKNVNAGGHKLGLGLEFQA

The target of assay [1] is T1, Mitochondrial fission factor (human (endogenous in dopaminergic neurons differentiated from SHEDs)) (UniProt Q9GZY8).
T1 sequence: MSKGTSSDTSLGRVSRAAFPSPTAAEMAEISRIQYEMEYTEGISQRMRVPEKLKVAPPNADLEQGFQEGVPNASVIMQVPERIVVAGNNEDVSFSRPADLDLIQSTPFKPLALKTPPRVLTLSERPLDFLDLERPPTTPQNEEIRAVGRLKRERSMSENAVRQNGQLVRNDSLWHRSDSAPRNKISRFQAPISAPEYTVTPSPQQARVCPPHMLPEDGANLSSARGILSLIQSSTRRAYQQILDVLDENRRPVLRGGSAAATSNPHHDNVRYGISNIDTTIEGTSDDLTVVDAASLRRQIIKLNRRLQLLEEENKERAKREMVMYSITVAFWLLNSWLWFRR
Description: co-IP; IP with rabbit polyclonal anti-MFF antibody from lysate of untreated DNs (150 mM NaCl, 50 mM Tris-HCl pH 7.5, 1% CHAPS, 1 mM EDTA), overnight at 4 °C, protein A Mag Sepharose Xtra; Western blot. For orientation: In western blotting, separated proteins are transferred to a membrane and probed.

Assay [2] has as its target Voltage-dependent anion channel 1 (human (endogenous in dopaminergic neurons differentiated from SHEDs)) (UniProt P21796). Description: co-IP; IP with rabbit polyclonal anti-VDAC1 antibody from lysate of untreated DNs (150 mM NaCl, 50 mM Tris-HCl pH 7.5, 1% CHAPS, 1 mM EDTA), overnight at 4 °C, protein A Mag Sepharose Xtra; Western blot.

No constants are given. Whether binding was seen depends on the method and setting. In cells and extracts the contact can be indirect. Some results given as binding are weak or reduced against the parent protein; the word gives no strength.

For the molecule “Voltage-dependent anion channel 1 (from UniProt P21796 1-283)”, the binding result in assay [1] was “binds”.

B1: Mitochondrial fission factor (protein, UniProt Q9GZY8 1-342)
chain: T1 sequence
In the case of B1, the binding result in assay [2] was “binds”.
